Assay results published in patent US20210380648.

Target: Egr1 (UniProt P18146)
Experiment: activity in cells
Conditions: HEK293, indirect, protein in cells, protein details: full-length Egr1 expression plasmid, only the site is given

Row | Sequence | activity on this sequence (luciferase reporter with Klotho promoter) | activity on this sequence (luciferase reporter with -289 or -1800 bp Klotho promoter)
1 | CTGGGGGTGGGGGCA (double strand) [Klotho promoter Egr1 site 3] | active | 
2 | GCGGGGGTG (double strand) [Klotho promoter Egr1 site 2] |  | active
